Reference: patent publication US20250313563A1, “GLYCOGEN SYNTHASE KINASE 3 INHIBITORS AND USES THEREOF” (The Broad Institute, Inc., priority 2022, published 2025)

Tested on: MDR1-MDCK cell monolayers
Assay: MDR1/MDCK assay (blood-brain barrier penetration potential)
Conditions: 5 μM, pH 7.4, 120 minutes; for MDCK permeability (MDR1-MDCK); Mean; Papp (B − A): B to A

| SMILES | MDCK permeability (MDR1-MDCK); Mean; Papp (A − B) (A to B) | MDCK permeability (MDR1-MDCK); Mean; Papp (B − A) |
| --- | --- | --- |
| CC(C)(C)Cc1[nH]nc2c1C1(CN(S(=O)(=O)CC3CC3)C1)C1=C(CC(C)(C)CC1=O)N2 | 1.6843 10^−6 cm/s and 1.37 10^−6 cm/s | 21.698 10^−6 cm/s, 30.24 10^−6 cm/s, 9.3765 10^−6 cm/s, 11.71 10^−6 cm/s |
| CC(C)(C)Cc1[nH]nc2c1C1(CN(S(=O)(=O)CC3CC3)C1)C1=C(CC3(CCC3)CC1=O)N2 [Compound 107829] |  | 27.89 10^−6 cm/s and 8.72 10^−6 cm/s |

The source holds more than one record for some entries. This list holds those alone. The source may hold further records. For part of these data: Results that share an entry appear to be repeats on other runs, samples or individuals. For part of these data: Results that share an entry read as repeated measurements on other runs, samples or individuals; a mean can stand among them.
